Test results published in patent US6699463B2, “Photostable cationic organic sunscreen compounds with antioxidant properties and compositions obtained therefrom” (EM Industries, priority 2002, dated 2004).
For at least one compound, name, drawing or mass did not settle the structure.

How the values were obtained:
[1] = Chelating property: free coordination sites in Fe3+-antioxidant complex, UV spectrophotometric azide method; assay type: physicochemical; conditions: 1.0 mM Fe^3+, 5 mM chelator, pH 7.4
Description: (§1) Iron-catalyzed formation of a hydroxyl radical from a superoxide anion radical and hydrogen peroxide requires the availability of at least one iron coordination site that is either empty or occupied by a readily dissociable ligand, such as water. […] Martell et al, 1957). The results are recorded in Tables 1 and 2. [table]

[2] = Chelating property: free coordination sites in Cu2+-antioxidant complex, UV spectrophotometric azide method; assay type: physicochemical; conditions: 1.0 mM Cu^2+, 5 mM chelator, pH 7.4
Description: as §1

[3] = 1 M NaN3, 50 mM phosphate buffer

Structure (SMILES): Cc1c(C)c2c(c(C)c1O)CCC(C)(C(=O)O)O2 (stereo not shown) [Trolox C, reference compound]
- Absorption Maxima of Complex (λmax in nm) With Fe^3+ ([1]; 50 mM phosphate buffer): 240, 284 nm
- Absorption Maxima of Complex (λmax in nm) N3 Induced Shift (Fe^3+) [1, 3]: 240, 273, 284, 360 nm
- Absorption Maxima of Complex (λmax in nm) With Cu^2+ ([2]; 50 mM phosphate buffer): 241, 288 nm
- Absorption Maxima of Complex (λmax in nm) N3 Induced Shift (Cu^2+) [2, 3]: 241, 261, 352, 440 nm
